Measurements reported in article doi:10.1101/2025.06.16.658187.
No constants are given. Whether binding was seen depends on the method and setting. Binding seen in cells or lysates may run through a third protein. Sequences can lack the tags named with a protein.

Target: T1, Flag-tagged TRF1, P54274
T1 chain: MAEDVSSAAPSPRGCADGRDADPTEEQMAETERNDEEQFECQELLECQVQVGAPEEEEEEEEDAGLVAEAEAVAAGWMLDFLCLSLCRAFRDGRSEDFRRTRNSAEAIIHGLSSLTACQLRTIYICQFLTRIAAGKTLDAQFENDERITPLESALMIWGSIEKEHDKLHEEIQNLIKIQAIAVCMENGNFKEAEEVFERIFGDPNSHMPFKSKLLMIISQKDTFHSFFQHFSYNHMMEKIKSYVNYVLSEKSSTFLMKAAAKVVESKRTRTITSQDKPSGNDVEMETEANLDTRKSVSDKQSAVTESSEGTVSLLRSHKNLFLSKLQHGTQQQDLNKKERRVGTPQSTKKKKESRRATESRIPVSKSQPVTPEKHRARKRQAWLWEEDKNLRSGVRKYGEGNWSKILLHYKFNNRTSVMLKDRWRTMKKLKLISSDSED
Test: co-IP
Conditions: remark: other sources report otherwise

- binding: no binding
B1: Tripartite motif-containing 28 (TRIM28), endogenous in BJ^T cells, Q13263 1-835 (protein)
chain: MAASAAAASAAAASAASGSPGPGEGSAGGEKRSTAPSAAASASASAAASSPAGGGAEALELLEHCGVCRERLRPEREPRLLPCLHSACSACLGPAAPAAANSSGDGGAAGDGTVVDCPVCKQQCFSKDIVENYFMRDSGSKAATDAQDANQCCTSCEDNAPATSYCVECSEPLCETCVEAHQRVKYTKDHTVRSTGPAKSRDGERTVYCNVHKHEPLVLFCESCDTLTCRDCQLNAHKDHQYQFLEDAVRNQRKLLASLVKRLGDKHATLQKSTKEVRSSIRQVSDVQKRVQVDVKMAILQIMKELNKRGRVLVNDAQKVTEGQQERLERQHWTMTKIQKHQEHILRFASWALESDNNTALLLSKKLIYFQLHRALKMIVDPVEPHGEMKFQWDLNAWTKSAEAFGKIVAERPGTNSTGPAPMAPPRAPGPLSKQGSGSSQPMEVQEGYGFGSGDDPYSSAEPHVSGVKRSRSGEGEVSGLMRKVPRVSLERLDLDLTADSQPPVFKVFPGSTTEDYNLIVIERGAAAAATGQPGTAPAGTPGAPPLAGMAIVKEEETEAAIGAPPTATEGPETKPVLMALAEGPGAEGPRLASPSGSTSSGLEVVAPEGTSAPGGGPGTLDDSATICRVCQKPGDLVMCNQCEFCFHLDCHLPALQDVPGEEWSCSLCHVLPDLKEEDGSLSLDGADSTGVVAKLSPANQRKCERVLLALFCHEPCRPLHQLATDSTFSLDQPGGTLDLTLIRARLQEKLSPPYSSPQEFAQDVGRMFKQFNKLTEDKADVQSIIGLQRFFETRMNEAFGDTKFSAVLVEPPPMSLPGAGLSSQELSGGPGDGP
